Experimental data: PubChem BioAssay AID686937 (Drosophila RNAi Screening Center, 2013)

Aim: 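Genes whose loss weakens secretory pathway function in fly cells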 (primary screen)
System: Drosophila S2 cells expressing secreted horseradish peroxidase
Knock-down reagent: long dsRNA against Drosophila genes
Time to read-out: about 5.5 days (5 days dsRNA, then 12 h reporter induction)
Challenge: reporter expression induced after 5 days of dsRNA, read 12 h later; inducer not stated
Read-out: 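Chemiluminescent measurement of peroxidase in the medium 12 h after reporter induction, following 5 days of dsRNA, given as a z-score per plate; higher means more secretion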
Direction: z-score: higher = more reporter secreted into medium
The deposit covers about 23,000 reagents; below is an unselected part of those that have a named target and a result. 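Reduced-secretion tags in replicate 1 do not always agree with the z-scores; no criterion for assigning the tags was given.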 Names joined by + are all predicted targets of the reagent. Further read-outs or replicates are left out here. The record does not give: the amount of reagent.

RhoGAP92B [DRSC14507] | z-score, replicate 1 = 0.33
RhoGAP92B [DRSC15637] | z-score, replicate 1 = 0.33
BBS5 [DRSC12168] | z-score, replicate 1 = 0.37
Gr61a [DRSC08358] | z-score, replicate 1 = 0.2
CG5793 [DRSC15874] | z-score, replicate 1 = 0
Ist1 [DRSC09697] | z-score, replicate 1 = 0.03
CG9121 [DRSC03142] | z-score, replicate 1 = 0.22
gdl-ORF39 + gdl [DRSC11350] | z-score, replicate 1 = 0.3
CG1409 [DRSC17910] | z-score, replicate 1 = -0.15
caps [DRSC11333] | z-score, replicate 1 = 0.23
caps [DRSC22224] | z-score, replicate 1 = -0.09
CG10395 [DRSC04840] | z-score, replicate 1 = 0.24
CG11509 (retired record) [DRSC17788] | z-score, replicate 1 = 0.39

Continued; the last 5 above are carried over.
CG1409 [DRSC17910] | z-score, replicate 1 = -0.15
caps [DRSC11333] | z-score, replicate 1 = 0.23
caps [DRSC22224] | z-score, replicate 1 = -0.09
CG10395 [DRSC04840] | z-score, replicate 1 = 0.24
CG11509 (retired record) [DRSC17788] | z-score, replicate 1 = 0.39
CG17159 + CG17162 [DRSC20899] | z-score, replicate 1 = -0.12
CG17159 + CG17162 [DRSC20900] | z-score, replicate 1 = 0.33
Ance-4 [DRSC07104] | z-score, replicate 1 = 0.21
CG4161 [DRSC01930] | z-score, replicate 1 = -0.1
CG1304 [DRSC20494] | z-score, replicate 1 = 0.59
CG30265 [DRSC21592] | z-score, replicate 1 = 0.24
CG42299 + CG42300 [DRSC19680] | z-score, replicate 1 = 0.18
CG42299 + CG42300 [DRSC19815] | z-score, replicate 1 = 0.35
CG9259 [DRSC03174] | z-score, replicate 1 = 0.31
Smyd5 [DRSC15483] | z-score, replicate 1 = -0.29
CG8891 [DRSC03120] | z-score, replicate 1 = 0.18
Hr51 [DRSC06627] | z-score, replicate 1 = 0.07
Hr51 [DRSC22829] | z-score, replicate 1 = -0.7
ox [DRSC07520] | z-score, replicate 1 = -0.94
CG7394 [DRSC10835] | z-score, replicate 1 = 0.06
KFase [DRSC03258] | z-score, replicate 1 = 0.25
CG13613 [DRSC14616] | z-score, replicate 1 = 0.12
CG18745 [DRSC15382] | z-score, replicate 1 = 0.11
LysD + LysC (retired record) [DRSC08674] | z-score, replicate 1 = 0.12
LysD + LysC (retired record) [DRSC22743] | z-score, replicate 1 = -2.33; phenotype, replicate 1 = reduced secretion
fsd [DRSC06166] | z-score, replicate 1 = 0.26
CG5535 [DRSC10514] | z-score, replicate 1 = 0.38
Mis12 [DRSC10299] | z-score, replicate 1 = -0.64
CG9018 [DRSC08618] | z-score, replicate 1 = 0.51
Ric [DRSC07532] | z-score, replicate 1 = 0.38
ChLD3 [DRSC02640] | z-score, replicate 1 = 0.08
CG14377 [DRSC14837] | z-score, replicate 1 = 0.42
